Like-named read-outs stand apart in the source and are kept apart here. Where a SMILES comes first, the peptide text is derived from it. Side-chain parts run from the residue outwards. The star is where a group is joined. DTPA = O=C(O)CN(CCN(CC(=O)O)CC(=O)O)CCN(CC(=O)O)CC(=O)*; X1 = NC(=S)NN=CC(=O)*
Legend:
GW 39 tumor xenografts = assay: Pretargeting: 125-I-hMN-14 × 734 bsAb, 24 h later 99m-Tc-IMP-192, biodistribution; assay type: in vivo, Nude mice
GW-39 = conditions: for Radiation absorbed dose (normalized): normalized to 1500 cGy to the kidneys

Molecule | % saturation on hMN-14 × 734 (available DTPA binding sites on tumor bound bsAb filled) (GW 39 tumor xenografts; 30 min) [%] | % saturation on hMN-14 × 734 (available DTPA binding sites on tumor bound bsAb filled) (GW 39 tumor xenografts; 1 h) [%] | % saturation on hMN-14 × 734 (available DTPA binding sites on tumor bound bsAb filled) (GW 39 tumor xenografts; 3 h) [%] | % saturation on hMN-14 × 734 (available DTPA binding sites on tumor bound bsAb filled) (GW 39 tumor xenografts; 24 h) [%] | Radiation absorbed dose (GW-39; Blood) [cGy/mCi] | Radiation absorbed dose (normalized) (GW-39; Blood) [cGy] | Radiation absorbed dose (GW-39; Kidneys) [cGy/mCi] | Radiation absorbed dose (normalized) (GW-39; Kidneys) [cGy] | Radiation absorbed dose (GW-39; Liver) [cGy/mCi] | Radiation absorbed dose (normalized) (GW-39; Liver) [cGy] | Radiation absorbed dose (GW-39; Lungs) [cGy/mCi] | Radiation absorbed dose (normalized) (GW-39; Lungs) [cGy] | Radiation absorbed dose (GW-39; Tumor) | Radiation absorbed dose (normalized) (GW-39; Tumor)
CC(=O)N[C@@H](CCCCNC(=O)CN(CCN(CCN(CC(=O)O)CC(=O)O)CC(=O)O)CC(=O)O)C(=O)N[C@@H](Cc1ccc(O)cc1)C(=O)N[C@@H](CCCCNC(=O)CN(CCN(CCN(CC(=O)O)CC(=O)O)CC(=O)O)CC(=O)O)C(=O)N[C@@H](CCCCNC(=O)[C@H](CS)NC(=O)C=NNC(N)=S)C(N)=O [IMP 192, Ac-Lys(DTPA)-Tyr-Lys(DTPA)-Lys(Tscg-Cys)-NH2] (Ac-K(DTPA)YK(DTPA)K([Cys-X1])-NH2) | 25.4 | 25.8 | 25 | 28 | – | – | – | – | – | – | – | – | – | –
^90Y-IMP-241: IMP 241 divalent HSG-DOTA peptide radiolabeled with ^90Y (FKYK; D-residues) | – | – | – | – | 416 | 364 | 1713 | 1500 | 551 | 482 | 277 | 242 | 14,366 cGy/mCi | 12,578 cGy
